± gives the standard deviation. This is a selection; strong and weak results do not stand in their true shares. Many entries were measured with a wide error.
System: MILI (PIWIL2) piRISC loaded with L1MC piRNA (26 nt)
Assay: pre-steady-state target cleavage rate (min^-1); MIWI and MILI are mouse PIWI proteins and EfPiwi is from a freshwater sponge; tags in brackets are library labels; higher = faster piRNA-guided slicing of the target
Settings: guide: L1MC piRNA 5'p-UAACUAAAUACUAUGCAAGCUGUAGG; auxiliary factor: 500 nM mouse GTSF1
Description: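 Cleave-'n-Seq: a library of target RNAs (target site embedded in constant flanks, ACAGCATTCCGCGTTAGTGATATCCG... 5' flank; DNA-blocked outside the site) at 0.1 nM was incubated with 1 nM active mouse MILI or MIWI piRISC (synthetic 5'-monophosphorylated piRNA guide) with or without 500 nM mouse GTSF1 at 33 °C for 1 min to 16 h. Uncleaved targets were sequenced and normalised to non-target controls, and the pooled three trials were fitted to a burst-and-steady-state model to give the pre-steady-state cleavage rate (min^-1; k3 is constrained to at most 1e-4). Sequence is the target site only; target names encode pairing extent (gX:gY) and contiguous / 1-mismatch / 2-mismatch / bulge geometry. Fits with R² ≤ 0 are excluded.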

| Sequence | pre-steady-state target cleavage rate |
| --- | --- |
| UCCUGGAUGUCGAACGUAAGUAUUUACAAA | 0.000216 ± 0.024 |
| UCCUGCUACUCGUUGCAUAGUAUUUAGAAA | 0.179 ± 0.032 |
| UCCUGGAUGUGCUUGCAUAGCUAUUUAGUUA | 0.00148 ± 0.0084 |
| UCCUUCUACAGCUUGCAUAGUAUUUAGUUA | 0.3 ± 0.015 |
| UCCUGGAUGUCGAAGCAUAGUACUUAGUUA | 0.00746 ± 0.0031 |
| UCCUGGUACAGCUUGCGUAGUAUUUAGUUA | 0.219 ± 0.021 |
| UCCUGGUACAGCUUGGUAAGUAUUUACAAA | 0.00277 ± 0.0058 |
| UCCUGCUAGAGCUUGCAAAGUAUUUAGUUA | 0.112 ± 0.012 |
| UCCUGGAUGAGCUUGCAUACUAUUUACAAA | 0.00213 ± 0.0061 |
| UCCUGGAUGUCCUUCCAUAGUUUUUAGUUA | 0.00229 ± 0.0061 |
| UCCUGGAUGUGGAAGCAUAGUAUUUAGAAA | 0.00259 ± 0.0037 |
| UCCUGGAUGUCGAAGCAUAGUUUUUUGUUA | 0.00147 ± 0.0069 |
| UCCUGGAUCAGCUUGCAUAGAAUUUACAAA | 0.00722 ± 0.0036 |
| UCCUGGAACAGCUUGCAUAGAAUUUAGAAA | 0.0206 ± 0.0083 |

Same assay, conditions: guide: L1MC piRNA 5'p-UAACUAAAUACUAUGCAAGCUGUAGG; auxiliary factor: none (no GTSF1)

| Sequence | pre-steady-state target cleavage rate |
| --- | --- |
| UCCUGGAUGUCGAACGUAAGUAUUUACAAA | 0.000131 ± 0.033 |
| UCCUGGAUCAGGAAGCAUAGUAUUUACAAA | 0.000793 ± 0.0064 |
| UCCUGGAUCAGCUUGCAUAGUAUAAACAAA | 0.000649 ± 0.01 |
| UCCUGGAUGUCGAAGCAUACUAAUUAGUUA | 0.000254 ± 0.019 |
| UCCUGCUACUCGUUGCAUAGUAUUUAGAAA | 0.00107 ± 0.0047 |
| UCCUGGUACAGCUUCGUUAGUAUUUACAAA | 0.000567 ± 0.011 |
| UCCUGGAUGUCGUUGCAUAGUAAUUAGUAA | 0.00172 ± 0.0038 |
| UCCUGGAUGUGCUUGCAUAGCUAUUUAGUUA | 0.00119 ± 0.0068 |
| UCCUGGAUGUCGAACGAUAGUCAUUUAGUUA | 0.000112 ± 0.046 |
| UCCUCCUACAGCUUGCAUAGUAUUUAGAAA | 0.00239 ± 0.0035 |
| UCCUGGAUGUCGAAGCAUAGUACUUAGUUA | 0.00231 ± 0.0031 |
| UCCUGGUACAGCUUGCGUAGUAUUUAGUUA | 0.014 ± 0.004 |
| UCCUGGAUGUCGAUGCAUAGUAUUUUCUUA | 0.000744 ± 0.0084 |
| UCCUGGAACAGCUACGAUAGUAUUUAGUUA | 0.00152 ± 0.004 |
| UCCUGGUACAGCUUGGUAAGUAUUUACAAA | 0.000887 ± 0.0067 |
| UCCUGCUAGAGCUUGCAAAGUAUUUAGUUA | 0.00382 ± 0.0021 |
| UCCUGCUACAGCUACCAUAGUAUUUAGAAA | 0.000922 ± 0.0059 |
| UCCUGGAUGAGCUUGCAUACUAUUUACAAA | 0.000267 ± 0.025 |
| UCCUGGAUGAGCUUGCUAAGUAUUUAGAAA | 0.0007 ± 0.0077 |
| UCCUGGAUGUCCUUCCAUAGUUUUUAGUUA | 0.000396 ± 0.015 |
| UCCUGGAUGUGGAAGCAUAGUAUUUAGAAA | 0.000746 ± 0.0078 |
| UCCUGGAUGUCGAAGCAUAGUUUUUUGUUA | 0.000612 ± 0.0076 |
| UCCUGCUACAGCUUGCAUAGUAUUUUCAUA | 0.000937 ± 0.0074 |
| UCCUGGAUCAGCUUGCAUAGAAUUUACAAA | 0.000653 ± 0.0079 |
| UCCUGGAACAGCUUGCAUAGAAUUUAGAAA | 0.00123 ± 0.0043 |
| UCCUGGAUGAGCUUGCAUUCAAUUUAGUAA | 0.000622 ± 0.0089 |

From the supplement of paper PMC10338343
